# PubChem BioAssay AID652259, Drosophila RNAi Screening Center, 2013
# Aim: 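Knock-downs that push a Wingless-driven reporter up or down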 (primary screen)
# System: Drosophila clone 8 imaginal disc epithelial cells
# Knock-down reagent: long dsRNA against Drosophila genes
# Treatment: pathway stimulated by co-transfected Wingless expression plasmid
# Measured: 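Firefly luciferase from a tcf-site Wingless reporter, measured alongside co-transfected Renilla luciferase that tracks transfection; pathway stimulated by a Wingless plasmid; the firefly-to-Renilla ratio is not deposited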
# Scale: firefly reporter light: higher = more Wg reporter light, before normalisation; Renilla control light: higher = more transfected or surviving cells
# Active means: 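Strong candidates differ from their plate mean by at least two out of four per-plate statistical tests; weak candidates meet just one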
# Calls: active = candidate regulator (raises or lowers reporter); inactive = not a candidate
# The screen tested about 22,000 reagents; this is a random part of those that have a named target and a result. Of all reagents, 233 (1.1%) got an active call. 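Light values are raw, unnormalised plate reads; the ratio scores behind the reporter calls were not deposited.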 A plus sign joins genes that one reagent is predicted to hit. Not given: the amount of reagent, the time to read-out, the dose of the treatment.
gene,DRSC id,"firefly reporter light, replicate 1","firefly reporter light, replicate 2","Renilla control light, replicate 1","Renilla control light, replicate 2",outcome
Lmpt (GeneID 39889),DRSC09450,5332,,2048,,inactive
Lmpt (GeneID 39889),DRSC09864,6832,,2640,,inactive
Lmpt (GeneID 39889),DRSC09865,5824,,2211,,inactive
Lmpt (GeneID 39889),DRSC09866,9395,,3885,,inactive
Lmpt (GeneID 39889),DRSC11107,9789,,4189,,inactive
Lmpt (GeneID 39889),DRSC21738,3.67e5,3.35e5,1.33e5,1.16e5,inactive
Lmpt (GeneID 39889),DRSC22921,1.18e6,1.18e6,3.04e5,65402,inactive
CG34320 (retired record) (GeneID 5740595),DRSC17682,4283,,1760,,inactive
CG43106 (GeneID 12797866),DRSC04279,3064,7317,605,3005,inactive
CG31337 (GeneID 318688),DRSC12981,3476,,987,,inactive
lms (GeneID 37322),DRSC06387,3894,,1894,,inactive
CG5056 (GeneID 34406),DRSC02808,2304,7961,858,4332,inactive
nkt (GeneID 39264),DRSC10144,7224,,3421,,inactive
Phb1 (GeneID 49168),DRSC03563,6804,,2689,,inactive
Dyrk2 (GeneID 34831),DRSC03610,6396,,1411,,inactive
CG2336 (GeneID 40804),DRSC12581,9568,,2742,,inactive
CG31268 (GeneID 318652),DRSC13203,2026,,1425,,inactive
CG17260 (GeneID 33519),DRSC00497,10868,,4304,,inactive
Tengl3 (GeneID 33404),DRSC22288,4.45e5,5.24e5,1.59e5,1.70e5,inactive
HmgD (GeneID 37481),DRSC04619,12556,,4161,,inactive
Mitofilin (GeneID 42587),DRSC16742,2749,3808,790,1072,inactive
CG8236 (GeneID 41047),DRSC16399,21120,,6160,,inactive
CG3358 (GeneID 35604),DRSC04992,17254,,5296,,inactive
Nazo (GeneID 40976),DRSC14343,24420,,4949,,inactive
CG15880 (GeneID 33257),DRSC00474,2964,6300,1196,2332,inactive
TwdlC (GeneID 43245),DRSC14749,7516,,2851,,inactive
Tpc2 (GeneID 37983),DRSC04322,2685,5190,412,1795,inactive
CG10365 (GeneID 42801),DRSC14234,14688,,12392,,inactive
mus302 (GeneID 39874),DRSC09905,7380,,3220,,inactive
Kdm3 (GeneID 41143),DRSC16393,7216,,2842,,inactive
CG5938 (GeneID 43290),DRSC15923,4800,10968,824,835,inactive
Ance-4 (GeneID 35909),DRSC07104,2048,6651,953,2870,inactive
CG17839 (GeneID 39616),DRSC10290,5201,,2208,,inactive
CG17839 (GeneID 39616),DRSC10291,5187,,2471,,inactive
Ugt49B1 (GeneID 37420),DRSC04461,1488,6525,646,2301,inactive
unk (GeneID 42738),DRSC17093,5105,11805,2042,3130,inactive
CG12848 (GeneID 50139),DRSC04128,2836,10246,843,3274,inactive

10 entries from above, reformatted:
gene | DRSC id | firefly reporter light, replicate 1 | firefly reporter light, replicate 2 | Renilla control light, replicate 1 | Renilla control light, replicate 2 | outcome
CG3358 (GeneID 35604) | DRSC04992 | 17254 | – | 5296 | – | inactive
Nazo (GeneID 40976) | DRSC14343 | 24420 | – | 4949 | – | inactive
CG15880 (GeneID 33257) | DRSC00474 | 2964 | 6300 | 1196 | 2332 | inactive
TwdlC (GeneID 43245) | DRSC14749 | 7516 | – | 2851 | – | inactive
Tpc2 (GeneID 37983) | DRSC04322 | 2685 | 5190 | 412 | 1795 | inactive
CG10365 (GeneID 42801) | DRSC14234 | 14688 | – | 12392 | – | inactive
mus302 (GeneID 39874) | DRSC09905 | 7380 | – | 3220 | – | inactive
Kdm3 (GeneID 41143) | DRSC16393 | 7216 | – | 2842 | – | inactive
CG5938 (GeneID 43290) | DRSC15923 | 4800 | 10968 | 824 | 835 | inactive
Ance-4 (GeneID 35909) | DRSC07104 | 2048 | 6651 | 953 | 2870 | inactive

More reagents:
gene,DRSC id,"firefly reporter light, replicate 1","firefly reporter light, replicate 2","Renilla control light, replicate 1","Renilla control light, replicate 2",outcome
CG17734 (GeneID 41359),DRSC15256,21658,,5795,,inactive
CG7824 (GeneID 43530),DRSC16321,7840,,2151,,inactive
hoip (GeneID 44173),DRSC03546,1685,3650,170,480,inactive
bgm (GeneID 44117),DRSC03495,12573,,1808,,inactive
mino (GeneID 43350),DRSC14132,1817,7707,994,1957,inactive
CG31036 (GeneID 43539),DRSC15055,6775,,3529,,inactive
CG31036 (GeneID 43539),DRSC15057,7177,,2664,,inactive
CG9795 (GeneID 40545),DRSC12336,11594,,3002,,inactive
ms(2)34Fe (GeneID 34833),DRSC01905,2787,5890,1008,2392,inactive
snRNA:U1:95Cc + snRNA:U1:95Cb,DRSC13641,2785,,1416,,inactive
CG14671 (GeneID 40671),DRSC12257,17154,,4315,,inactive
EbpII (GeneID 326108),DRSC04637,22944,,6423,,inactive
EbpII (GeneID 326108),DRSC22484,7.91e5,8.19e5,4.08e5,11658,inactive
CG5023 (GeneID 42400),DRSC15697,18160,,4843,,inactive
Ns4 (GeneID 35338),DRSC03199,11842,,3202,,inactive
Obp50b + Obp50c,DRSC21818,8.35e5,7.29e5,3.70e5,3.30e5,inactive
Uros2 (GeneID 41908),DRSC16505,11523,,2187,,inactive
CG3104 (GeneID 33486),DRSC00567,4900,10485,1472,3122,inactive
CG17140 + CG17139,DRSC02585,3126,4211,1095,2662,inactive
CG17140 + CG17139,DRSC02586,3351,7808,1200,3600,inactive
GluRIB (GeneID 44484),DRSC10258,7364,,4976,,inactive
GluRIB (GeneID 44484),DRSC11177,6193,,3307,,inactive
Cyp9h1 (GeneID 36412),DRSC07391,6360,,1952,,inactive
ddbt (GeneID 5740226),DRSC07869,3845,,1717,,inactive
rod (GeneID 43719),DRSC17047,20113,,10309,,inactive
fry (GeneID 39122),DRSC08993,4732,,2277,,inactive
fry (GeneID 39122),DRSC10172,5426,,2294,,inactive
fry (GeneID 39122),DRSC10709,5927,,2384,,inactive
fry (GeneID 39122),DRSC10712,6858,,1457,,inactive
Diap1 (GeneID 39753),DRSC11404,161,,87,,inactive
TfIIFalpha (GeneID 40790),DRSC12608,6777,,1780,,inactive
PGRP-LA (GeneID 39062),DRSC10327,6632,,3872,,inactive
PGRP-LA (GeneID 39062),DRSC10414,7323,,4380,,inactive
CG30373 (GeneID 246573),DRSC05081,16086,,9090,,inactive
CG13806 (GeneID 38292),DRSC08341,5184,,1825,,inactive
Patsas (GeneID 34634),DRSC02975,12273,,3900,,inactive
